Structures can show the parent of a compound that is named as a salt. This is one part of the list. This is a noisy data set.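 Optical density at 600 nm measured yeast growth. Because the two-hybrid strains grew without histidine, growth required Pex3–Pex19 binding. Trypanosome selectivity meant a compound inhibited the trypanosome-pair strain's growth by more than 65% but the human-pair strain's by less than 65%.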
system: Saccharomyces cerevisiae HF7c pdr5Δ; experiment: general growth inhibition of yeast HF7c pdr5Δ in -Leu -Trp medium, relative to DMSO; higher = stronger general growth inhibition; conditions: 100 µM; 24 h

SMILES	general growth inhibition [%]
O=C(CCCN1CCC(O)(c2cccc(C(F)(F)F)c2)CC1)c1ccc(F)cc1 [Trifluperidol hydrochloride]	44.3
NC(Cc1ccc(Cl)cc1)C(=O)O (racemic) [(±)-p-Chlorophenylalanine]	27.1
Cc1c(-c2ccc(-c3ccccc3F)cc2)nc2ccc(F)cc2c1C(=O)O [Brequinar sodium salt hydrate]	40.3
N=C(N)N1CCc2ccccc2C1 [Debrisoquin sulfate]	20.7
Cc1ccc(N(CC2=NCCN2)c2cccc(O)c2)cc1 [Phentolamine mesylate]	54.6
Cn1c(=O)c2[nH]cnc2n(C)c1=O [Aminophylline ethylenediamine]	38.6
CN1C(C(=O)Nc2ccccn2)=C(O)c2ccccc2S1(=O)=O [Piroxicam]	44.5
CN(C)C/C=C(/c1ccc(Br)cc1)c1cccnc1 [Zimelidine dihydrochloride]	10.9
O=C(Nc1cccnc1)N1CCC(Cc2cccc(Oc3ccc(C(F)(F)F)cn3)c2)CC1 [PF 3845 hydrate]	73
C=C[C@H]1CN2CC[C@H]1C[C@@H]2[C@@H](O)c1ccnc2ccc(OC)cc12 [Quinidine sulfate]	43.5
Nc1nc(Cl)nc2c1ncn2[C@@H]1O[C@H](COP(=O)(O)OP(=O)(O)OP(=O)(O)O)[C@H](O)C1O (some centres not stated) [2-Chloroadenosine triphosphate tetrasodium]	42.3
CC1=C(/C=C/C(C)=C/C=C/C(C)=C/C(=O)O)C(C)(C)CCC1 [Retinoic acid]	49.6
CCCCCCCC/C=C\CCCCCCCC(=O)NCCO [N-Oleoylethanolamine]	35.2
N[C@H](C(=O)O)[C@H](O)c1ccc(O)c(O)c1	56.7
CC1=C(C(=O)O)N2C(=O)[C@@H](NC(=O)[C@H](N)c3ccccc3)[C@H]2SC1 [Cephalexin hydrate]	33.2
CSc1ccc2c(c1)N(CCC1CCCCN1C)c1ccccc1S2 (configuration not stated) [Thioridazine hydrochloride]	16.2
CCCC(CCC)C(=O)O [Valproic acid sodium]	38.4
OC[C@H]1O[C@@H](n2cnc3c(N[C@H]4CCC[C@@H]4O)ncnc32)[C@H](O)[C@@H]1O	43.5
Nc1ccc(N2C(=O)c3ccccc3C2=O)c(Cl)c1 [N-(4-Amino-2-chlorophenyl)phthalimide]	38.2
Cc1ccc(C(=O)Nc2ccc(S(=O)(=O)O)c3cc(S(=O)(=O)O)cc(S(=O)(=O)O)c23)cc1NC(=O)c1cccc(NC(=O)Nc2cccc(C(=O)Nc3cc(C(=O)Nc4ccc(S(=O)(=O)O)c5cc(S(=O)(=O)O)cc(S(=O)(=O)O)c45)ccc3C)c2)c1 [Suramin sodium salt]	52.8
C[N+](C)(C)CCCCCC[N+](C)(C)C [Hexamethonium bromide]	32.6
NC(CO)C(=O)NNCc1ccc(O)c(O)c1O (configuration not stated) [Benserazide hydrochloride]	8.98
CN1CCN(c2nc3cc(C(F)(F)F)ccc3n3cccc23)CC1	30.7

Filtered by structure, the compounds so far with fluorine (4)
SMILES	general growth inhibition [%]
O=C(CCCN1CCC(O)(c2cccc(C(F)(F)F)c2)CC1)c1ccc(F)cc1 [Trifluperidol hydrochloride]	44.3
Cc1c(-c2ccc(-c3ccccc3F)cc2)nc2ccc(F)cc2c1C(=O)O [Brequinar sodium salt hydrate]	40.3
O=C(Nc1cccnc1)N1CCC(Cc2cccc(Oc3ccc(C(F)(F)F)cn3)c2)CC1 [PF 3845 hydrate]	73
CN1CCN(c2nc3cc(C(F)(F)F)ccc3n3cccc23)CC1	30.7

system: human PEX3-PEX19 interaction (yeast two-hybrid); experiment: growth inhibition of yeast two-hybrid strain reporting HsPex3-HsPex19 interaction, relative to DMSO; higher = stronger inhibition of human Pex3-Pex19 interaction / growth; conditions: 100 µM; 24 h; 3-aminotriazole 10 mM

SMILES	growth inhibition [%]
CNC(=O)[C@H]1O[C@@H](n2cnc3c(NCc4cccc(I)c4)nc(Cl)nc32)[C@H](O)[C@@H]1O [Chloro-IB-MECA]	-2.22
O=c1[nH]c(=S)[nH]c(-c2ccccc2)c1Cc1c(O)ccc2ccccc12 [Cambinol]	6.75
O=C(O)C1CCNCC1 [Isonipecotic acid]	44.7
Nc1nc(N)c2nc(-c3ccccc3)c(N)nc2n1 [Triamterene]	-3.1
N[C@@H](Cc1c[nH]c2ccc(O)cc12)C(=O)O [5-Hydroxy-L-tryptophan]	33.8
CC(C)NC[C@H](O)COc1ccc(CC(N)=O)cc1 [S(-)-Atenolol]	24.5
O=C(O)CCc1ccc(NCc2cccc(Oc3ccccc3)c2)cc1	79.2
Oc1ncnc2[nH]ncc12 [Allopurinol]	42.3
O=C(CCCN1CCC(O)(c2ccc(Cl)cc2)CC1)c1ccc(F)cc1 [Haloperidol]	30.2
NC(N)=NC(N)=Nc1ccccc1 [1-Phenylbiguanide]	40.3
CC/C(=C(\c1ccccc1)c1ccc(OCCN(C)C)cc1)c1ccccc1 [Tamoxifen citrate]	30.3
CCCCCCCCCCCCCCCCCCN(CCCCCCCCCCCCCCCCCC)CCCN(CCO)CCO [Avridine]	55.7
N[C@H](CO)C(=O)O [D-Serine]	49.4
CCC1(c2ccccc2)C(=O)NCNC1=O [Primidone]	46.4
C=CCNc1ncnc2ccc(Br)cc12	39.6
NC1=NCC2c3ccccc3Cc3ccccc3N12 (configuration not stated) [Epinastine hydrochloride]	33.6
O=C(CCCN1CCC(O)(c2cccc(C(F)(F)F)c2)CC1)c1ccc(F)cc1 [Trifluperidol hydrochloride]	36
NC(Cc1ccc(Cl)cc1)C(=O)O (racemic) [(±)-p-Chlorophenylalanine]	46
Cc1c(-c2ccc(-c3ccccc3F)cc2)nc2ccc(F)cc2c1C(=O)O [Brequinar sodium salt hydrate]	23
N=C(N)N1CCc2ccccc2C1 [Debrisoquin sulfate]	19.9

SMILES	growth inhibition [%]
Cc1ccc(N(CC2=NCCN2)c2cccc(O)c2)cc1 [Phentolamine mesylate]	38.7
Cn1c(=O)c2[nH]cnc2n(C)c1=O [Aminophylline ethylenediamine]	28.3
CN1C(C(=O)Nc2ccccn2)=C(O)c2ccccc2S1(=O)=O [Piroxicam]	35.1
CN(C)C/C=C(/c1ccc(Br)cc1)c1cccnc1 [Zimelidine dihydrochloride]	7.86
O=C(Nc1cccnc1)N1CCC(Cc2cccc(Oc3ccc(C(F)(F)F)cn3)c2)CC1 [PF 3845 hydrate]	63.1
C=C[C@H]1CN2CC[C@H]1C[C@@H]2[C@@H](O)c1ccnc2ccc(OC)cc12 [Quinidine sulfate]	41.9
Nc1nc(Cl)nc2c1ncn2[C@@H]1O[C@H](COP(=O)(O)OP(=O)(O)OP(=O)(O)O)[C@H](O)C1O (some centres not stated) [2-Chloroadenosine triphosphate tetrasodium]	47.8
CC1=C(/C=C/C(C)=C/C=C/C(C)=C/C(=O)O)C(C)(C)CCC1 [Retinoic acid]	34.2
CCCCCCCC/C=C\CCCCCCCC(=O)NCCO [N-Oleoylethanolamine]	31.1
N[C@H](C(=O)O)[C@H](O)c1ccc(O)c(O)c1	42
CC1=C(C(=O)O)N2C(=O)[C@@H](NC(=O)[C@H](N)c3ccccc3)[C@H]2SC1 [Cephalexin hydrate]	34.1
CSc1ccc2c(c1)N(CCC1CCCCN1C)c1ccccc1S2 (configuration not stated) [Thioridazine hydrochloride]	30
CCCC(CCC)C(=O)O [Valproic acid sodium]	39.7
OC[C@H]1O[C@@H](n2cnc3c(N[C@H]4CCC[C@@H]4O)ncnc32)[C@H](O)[C@@H]1O	46.3
Nc1ccc(N2C(=O)c3ccccc3C2=O)c(Cl)c1 [N-(4-Amino-2-chlorophenyl)phthalimide]	33.4
Cc1ccc(C(=O)Nc2ccc(S(=O)(=O)O)c3cc(S(=O)(=O)O)cc(S(=O)(=O)O)c23)cc1NC(=O)c1cccc(NC(=O)Nc2cccc(C(=O)Nc3cc(C(=O)Nc4ccc(S(=O)(=O)O)c5cc(S(=O)(=O)O)cc(S(=O)(=O)O)c45)ccc3C)c2)c1 [Suramin sodium salt]	44.3
C[N+](C)(C)CCCCCC[N+](C)(C)C [Hexamethonium bromide]	30.7
NC(CO)C(=O)NNCc1ccc(O)c(O)c1O (configuration not stated) [Benserazide hydrochloride]	4.85
CN1CCN(c2nc3cc(C(F)(F)F)ccc3n3cccc23)CC1	28.3
